# Data from article PMC7181604, “Arabidopsis FHY3 and FAR1 integrate light and strigolactone signaling to regulate branching”.
# Results are given in words; binding and its absence hold for the method and conditions named. Binding seen in cells or lysates may run through a third protein. Some entries that bind do so weakly or less than the wild type. Tags and fused reporters may be left off the sequences shown.
# T1: FAR1 (Co-IP construct) (Arabidopsis thaliana) (UniProt Q9SWG3)
# T1 sequence: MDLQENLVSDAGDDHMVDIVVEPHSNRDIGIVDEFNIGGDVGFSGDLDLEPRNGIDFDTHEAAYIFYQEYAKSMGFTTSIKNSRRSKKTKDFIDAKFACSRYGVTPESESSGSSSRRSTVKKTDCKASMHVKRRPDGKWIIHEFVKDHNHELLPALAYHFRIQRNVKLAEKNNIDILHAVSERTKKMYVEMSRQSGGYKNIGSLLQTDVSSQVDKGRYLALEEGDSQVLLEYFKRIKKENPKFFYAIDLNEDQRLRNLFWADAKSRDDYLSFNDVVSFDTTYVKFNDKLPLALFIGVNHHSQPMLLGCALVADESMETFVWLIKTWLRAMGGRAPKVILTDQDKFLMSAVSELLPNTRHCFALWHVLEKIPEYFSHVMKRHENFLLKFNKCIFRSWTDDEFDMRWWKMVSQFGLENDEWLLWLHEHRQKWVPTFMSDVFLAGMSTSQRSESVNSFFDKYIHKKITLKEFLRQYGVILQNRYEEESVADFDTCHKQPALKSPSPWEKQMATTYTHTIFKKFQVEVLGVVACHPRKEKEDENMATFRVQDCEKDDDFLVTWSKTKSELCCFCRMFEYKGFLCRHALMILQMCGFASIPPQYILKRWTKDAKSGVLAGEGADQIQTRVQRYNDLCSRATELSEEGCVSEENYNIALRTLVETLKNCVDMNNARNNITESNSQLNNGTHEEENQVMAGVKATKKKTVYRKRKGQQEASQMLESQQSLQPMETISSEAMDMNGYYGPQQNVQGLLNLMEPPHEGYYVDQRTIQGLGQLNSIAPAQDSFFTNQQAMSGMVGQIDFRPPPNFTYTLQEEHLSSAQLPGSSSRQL
# T2: FHY3-HA (Arabidopsis thaliana) (UniProt Q9LIE5)
# T2 sequence: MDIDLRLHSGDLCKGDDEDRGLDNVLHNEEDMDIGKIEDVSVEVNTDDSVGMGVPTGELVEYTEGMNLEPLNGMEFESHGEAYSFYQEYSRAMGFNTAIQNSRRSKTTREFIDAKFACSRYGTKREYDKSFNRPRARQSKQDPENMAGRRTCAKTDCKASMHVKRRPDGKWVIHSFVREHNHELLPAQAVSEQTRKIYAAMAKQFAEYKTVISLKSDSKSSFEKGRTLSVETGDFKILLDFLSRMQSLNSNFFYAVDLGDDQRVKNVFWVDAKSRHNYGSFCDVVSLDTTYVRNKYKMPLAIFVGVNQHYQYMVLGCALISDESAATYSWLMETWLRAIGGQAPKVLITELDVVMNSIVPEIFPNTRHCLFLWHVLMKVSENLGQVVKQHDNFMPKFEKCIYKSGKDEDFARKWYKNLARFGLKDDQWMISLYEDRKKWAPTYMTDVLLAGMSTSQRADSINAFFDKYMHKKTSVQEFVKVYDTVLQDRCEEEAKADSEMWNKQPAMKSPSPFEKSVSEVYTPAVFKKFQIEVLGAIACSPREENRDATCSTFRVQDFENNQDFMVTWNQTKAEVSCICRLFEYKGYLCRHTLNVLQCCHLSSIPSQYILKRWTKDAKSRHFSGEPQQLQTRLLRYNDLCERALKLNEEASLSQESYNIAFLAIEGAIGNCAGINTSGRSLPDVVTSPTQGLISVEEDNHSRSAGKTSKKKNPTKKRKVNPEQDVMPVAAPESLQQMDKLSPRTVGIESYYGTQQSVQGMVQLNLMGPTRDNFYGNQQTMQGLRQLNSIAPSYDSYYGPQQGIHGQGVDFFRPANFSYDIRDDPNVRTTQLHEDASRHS
# T3: SMXL6-HA (Arabidopsis thaliana) (UniProt Q9LML2)
# T3 sequence: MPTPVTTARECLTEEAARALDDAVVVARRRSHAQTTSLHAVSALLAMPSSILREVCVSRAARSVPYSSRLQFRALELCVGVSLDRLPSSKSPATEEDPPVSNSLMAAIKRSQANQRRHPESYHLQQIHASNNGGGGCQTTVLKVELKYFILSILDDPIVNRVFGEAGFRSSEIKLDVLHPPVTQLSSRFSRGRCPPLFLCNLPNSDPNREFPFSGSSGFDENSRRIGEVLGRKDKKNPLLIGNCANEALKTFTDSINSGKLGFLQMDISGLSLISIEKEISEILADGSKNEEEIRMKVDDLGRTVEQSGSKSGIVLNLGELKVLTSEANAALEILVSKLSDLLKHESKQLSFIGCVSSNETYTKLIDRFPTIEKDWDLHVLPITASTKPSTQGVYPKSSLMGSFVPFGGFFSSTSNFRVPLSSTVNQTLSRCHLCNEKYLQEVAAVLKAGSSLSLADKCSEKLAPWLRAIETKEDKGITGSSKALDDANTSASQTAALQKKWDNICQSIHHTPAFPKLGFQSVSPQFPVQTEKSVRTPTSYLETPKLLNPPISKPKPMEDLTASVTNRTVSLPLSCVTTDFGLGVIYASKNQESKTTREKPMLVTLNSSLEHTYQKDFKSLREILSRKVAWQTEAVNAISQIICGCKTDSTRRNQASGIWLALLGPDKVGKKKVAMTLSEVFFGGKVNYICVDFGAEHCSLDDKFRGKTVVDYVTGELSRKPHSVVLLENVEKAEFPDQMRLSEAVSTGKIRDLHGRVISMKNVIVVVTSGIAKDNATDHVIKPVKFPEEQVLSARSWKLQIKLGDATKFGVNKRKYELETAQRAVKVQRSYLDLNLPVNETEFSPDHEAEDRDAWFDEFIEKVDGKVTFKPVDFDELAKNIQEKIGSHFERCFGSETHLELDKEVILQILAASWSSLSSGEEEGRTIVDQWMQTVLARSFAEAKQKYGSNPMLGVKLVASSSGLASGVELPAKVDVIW
# How the values were obtained:
# Assay in all cases: co-IP; transient expression in N. benthamiana leaves; anti-HA magnetic agarose beads, 2 h at 4 °C; co-IP buffer 50 mM Tris-Cl pH 7.5, 100 mM NaCl, 0.1% Tween-20; detection with anti-MYC
# [1] = target: T1, FAR1 (Co-IP construct) (Arabidopsis thaliana)
# [2] = target: T2, FHY3-HA (Arabidopsis thaliana)
# [3] = target: T3, SMXL6-HA (Arabidopsis thaliana)
binding [1],binding [2],binding [3],Binder
binds,binds,binds,"SPL15-MYC (protein, UniProt Q9M2Q6 1-354) MELLMCSGQAESGGSSSTESSSLSGGLRFGQKIYFEDGSGSRSKNRVNTVRKSSTTARCQVEGCRMDLSNVKAYYSRHKVCCIHSKSSKVIVSGLHQRFCQQCSRFHQLSEFDLEKRSCRRRLACHNERRRKPQPTTALFTSHYSRIAPSLYGNPNAAMIKSVLGDPTAWSTARSVMQRPGPWQINPVRETHPHMNVLSHGSSSFTTCPEMINNNSTDSSCALSLLSNSYPIHQQQLQTPTNTWRPSSGFDSMISFSDKVTMAQPPPISTHQPPISTHQQYLSQTWEVIAGEKSNSHYMSPVSQISEPADFQISNGTTMGGFELYLHQQVLKQYMEPENTRAYDSSPQHFNWSL"
binds,binds,binds,"SPL9-MYC (protein, UniProt Q700W2 1-375) MEMGSNSGPGHGPGQAESGGSSTESSSFSGGLMFGQKIYFEDGGGGSGSSSSGGRSNRRVRGGGSGQSGQIPRCQVEGCGMDLTNAKGYYSRHRVCGVHSKTPKVTVAGIEQRFCQQCSRFHQLPEFDLEKRSCRRRLAGHNERRRKPQPASLSVLASRYGRIAPSLYENGDAGMNGSFLGNQEIGWPSSRTLDTRVMRRPVSSPSWQINPMNVFSQGSVGGGGTSFSSPEIMDTKLESYKGIGDSNCALSLLSNPHQPHDNNNNNNNNNNNNNNTWRASSGFGPMTVTMAQPPPAPSQHQYLNPPWVFKDNDNDMSPVLNLGRYTEPDNCQISSGTAMGEFELSDHHHQSRRQYMEDENTRAYDSSSHHTNWSL"
